Laboratory results from article PMC10299398.
These are yes or no findings as the source states them, for the method shown. In cells and extracts the contact can be indirect. For part of these data: Binding can be weak; no strength is given.

The chains behind the UniProt entries cited, without tags or fusion partners. Where a name states a change or a piece, a line headed by the entry shows the natural chain unless it says otherwise.
UniProt S8FA55: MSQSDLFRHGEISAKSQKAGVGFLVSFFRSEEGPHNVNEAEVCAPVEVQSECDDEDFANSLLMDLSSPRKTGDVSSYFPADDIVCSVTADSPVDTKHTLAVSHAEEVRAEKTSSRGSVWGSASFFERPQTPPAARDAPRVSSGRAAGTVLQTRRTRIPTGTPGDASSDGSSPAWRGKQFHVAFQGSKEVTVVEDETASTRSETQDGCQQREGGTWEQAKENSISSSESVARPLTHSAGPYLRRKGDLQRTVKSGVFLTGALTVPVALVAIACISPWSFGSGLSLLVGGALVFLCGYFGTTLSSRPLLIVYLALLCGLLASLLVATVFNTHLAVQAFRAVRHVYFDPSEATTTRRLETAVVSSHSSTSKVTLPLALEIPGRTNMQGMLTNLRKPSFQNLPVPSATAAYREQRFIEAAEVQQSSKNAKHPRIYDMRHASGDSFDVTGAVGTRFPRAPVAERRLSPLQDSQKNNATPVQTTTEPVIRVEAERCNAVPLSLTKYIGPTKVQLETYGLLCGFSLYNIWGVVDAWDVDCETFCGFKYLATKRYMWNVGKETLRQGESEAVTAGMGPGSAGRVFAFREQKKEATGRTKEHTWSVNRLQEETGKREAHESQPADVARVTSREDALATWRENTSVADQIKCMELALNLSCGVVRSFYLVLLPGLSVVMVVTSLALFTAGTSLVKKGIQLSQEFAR
UniProt P10878: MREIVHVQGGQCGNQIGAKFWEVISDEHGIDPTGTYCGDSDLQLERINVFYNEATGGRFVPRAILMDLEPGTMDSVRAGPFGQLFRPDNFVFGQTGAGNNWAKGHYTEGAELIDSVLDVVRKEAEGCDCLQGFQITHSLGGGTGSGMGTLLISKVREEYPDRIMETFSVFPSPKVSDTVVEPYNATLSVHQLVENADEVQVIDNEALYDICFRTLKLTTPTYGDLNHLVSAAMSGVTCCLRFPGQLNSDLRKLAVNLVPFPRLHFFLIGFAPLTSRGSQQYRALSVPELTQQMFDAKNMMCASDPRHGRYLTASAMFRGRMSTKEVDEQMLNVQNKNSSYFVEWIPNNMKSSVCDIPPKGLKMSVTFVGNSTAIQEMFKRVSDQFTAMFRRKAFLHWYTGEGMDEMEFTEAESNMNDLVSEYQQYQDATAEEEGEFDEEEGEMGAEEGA
UniProt A0A125YQ79: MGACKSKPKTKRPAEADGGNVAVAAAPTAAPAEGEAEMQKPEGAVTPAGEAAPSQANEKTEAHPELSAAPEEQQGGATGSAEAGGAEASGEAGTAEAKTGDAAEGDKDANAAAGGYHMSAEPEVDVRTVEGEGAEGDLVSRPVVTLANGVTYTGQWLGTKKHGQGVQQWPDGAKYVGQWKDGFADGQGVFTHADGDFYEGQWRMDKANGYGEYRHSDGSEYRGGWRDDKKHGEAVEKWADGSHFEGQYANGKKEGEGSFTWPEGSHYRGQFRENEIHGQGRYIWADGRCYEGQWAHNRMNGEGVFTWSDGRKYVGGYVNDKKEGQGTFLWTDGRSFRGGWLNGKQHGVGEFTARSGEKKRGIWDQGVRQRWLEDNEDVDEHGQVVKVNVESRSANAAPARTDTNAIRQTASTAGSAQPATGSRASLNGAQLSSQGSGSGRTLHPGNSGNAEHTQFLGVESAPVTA

Tests used:
[1] = target: GST-MORN2 (T. gondii); test: pull-down; GST or GST-MORN2 from E. coli BL21 held on glutathione beads, incubated 4 h with lysate of transfected HEK293T cells; blot with anti-Flag; only the target purified
[2] = target: Flag-IMC3 (T. gondii) (UniProt S8FA55); test: co-IP; HEK293T cells co-transfected with two plasmids, lysed in RIPA buffer with protease inhibitors; mouse anti-Flag and protein A+G; blots with anti-GFP and anti-Flag
[3] = target: Flag-β-Tubulin (UniProt P10878); test: as above

| binding [1] | Substance | binding [2] | binding [3] |
| --- | --- | --- | --- |
| binds | Flag-β-Tubulin (from UniProt P10878 1-449) | – | – |
| – | GFP-MORN2 (from UniProt A0A125YQ79) | no binding | binds |
